Measured values reported in US4596808A, “Pharmacologically active 3-substituted beta-carbolines useful as tranquilizers” (Schering Aktiengesellschaft, priority 1980, dated 1986).
For at least one compound, name, drawing or mass did not settle the structure.

Target: benzodiazepine receptor
Test: Displacement of 3H-flunitrazepam from benzodiazepine receptors in vitro (IC50)
Type: binding
Settings: rat forebrain, 3H-flunitrazepam 1.0 nM, 0° C.
Text: For example, it is known that certain locations in the central nervous system of vertebrates have a high specific affinity for bonding 1,4 and 1,5-benzodiazepines. (See, e.g., R. F. Squires & C. Braestrup, Nature [London] 266 [1977], 734, which is incorporated by reference herein). These locations are called benzodiazepine receptors.
This displacement activity of the compounds of this invention has been determined by measuring IC50 and ED50 values. The IC50 value is the concentration which causes a 50% displacement of the specific binding of ^3 H-flunitrazepam (1.0 nM, 0° C.) in samples with a total volume of 0.55 ml of a suspension of brain membrane, e.g., from rats.
The displacement test is carried out as follows:
0.5 ml of a suspension of untreated rat forebrain in 25 mM KH2 PO4, at a pH of 7.1 (5-10 mg of tissue per sample) were incubated with ^3 H-diazepam (specific activity 14.4 Ci/millimole, 1.9 nM) or ^3 H-flunitrazepam (specific activity 87 Ci/millimole, 1.0 nM) for 40-60 minutes at 0° C. After incubation, the suspension is filtered through a glass frit, the residue is washed twice with a cold buffer solution and the radioactivity is measured by scintillation counting.
The test is then repeated, except prior to addition of the radioactively marked benzodiazepine, a given amount or an excess amount of the compound whose displacement activity is to be ascertained, is added. […]

| Structure (SMILES) | In vitro IC50, inhibition of 3H flunitrazepam binding (Affinity for the benzodiazepine receptor) |
| --- | --- |
| CCOC(=O)CC(=O)c1cc2c(cn1)[nH]c1ccccc12 [COCH2 COOC2 H5, 3-carboethoxy-acetyl-beta-carboline] | 0.0339 µg/mL |
| O=C(N=CNO)c1cc2c(cn1)[nH]c1ccccc12 [CONCHNHOH, N-[(hydroxyamino)methylene]-beta-carboline-carboxamide] | 0.28 µg/mL |
